Results as given in article doi:10.1101/2022.12.19.520889.
These are yes or no findings as the source states them, for the method shown. In cells and extracts the contact can be indirect. For part of these data: Binding can be weak; no strength is given.

Amino acid sequences for entries named in this document (tags omitted). A change or cut given only in a name is not applied to a line headed by its entry.
UniProt P10721: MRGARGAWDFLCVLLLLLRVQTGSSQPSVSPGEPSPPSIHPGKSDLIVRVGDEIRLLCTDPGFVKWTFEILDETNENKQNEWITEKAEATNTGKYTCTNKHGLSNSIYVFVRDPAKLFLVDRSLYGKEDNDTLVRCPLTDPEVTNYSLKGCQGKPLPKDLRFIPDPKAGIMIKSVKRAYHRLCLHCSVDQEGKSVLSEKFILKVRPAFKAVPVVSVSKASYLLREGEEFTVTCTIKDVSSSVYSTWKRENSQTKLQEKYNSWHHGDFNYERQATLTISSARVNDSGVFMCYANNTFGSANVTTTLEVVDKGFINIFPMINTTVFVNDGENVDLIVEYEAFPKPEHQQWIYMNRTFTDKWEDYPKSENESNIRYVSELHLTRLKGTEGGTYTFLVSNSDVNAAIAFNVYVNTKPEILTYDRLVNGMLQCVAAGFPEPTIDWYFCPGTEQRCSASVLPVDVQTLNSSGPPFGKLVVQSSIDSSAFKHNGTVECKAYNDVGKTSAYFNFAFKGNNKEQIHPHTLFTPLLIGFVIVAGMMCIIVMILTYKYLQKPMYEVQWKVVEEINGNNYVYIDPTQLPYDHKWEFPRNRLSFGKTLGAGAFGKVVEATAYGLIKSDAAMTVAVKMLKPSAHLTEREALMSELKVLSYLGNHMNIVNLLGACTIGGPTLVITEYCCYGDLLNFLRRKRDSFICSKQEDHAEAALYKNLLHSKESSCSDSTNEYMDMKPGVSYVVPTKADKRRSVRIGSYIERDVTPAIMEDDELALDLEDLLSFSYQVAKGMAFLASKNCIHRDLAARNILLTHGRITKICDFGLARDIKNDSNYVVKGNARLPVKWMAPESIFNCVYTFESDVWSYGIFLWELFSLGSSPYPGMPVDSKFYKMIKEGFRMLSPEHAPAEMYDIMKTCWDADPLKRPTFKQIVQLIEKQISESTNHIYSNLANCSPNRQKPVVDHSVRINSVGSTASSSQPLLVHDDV
UniProt O43747: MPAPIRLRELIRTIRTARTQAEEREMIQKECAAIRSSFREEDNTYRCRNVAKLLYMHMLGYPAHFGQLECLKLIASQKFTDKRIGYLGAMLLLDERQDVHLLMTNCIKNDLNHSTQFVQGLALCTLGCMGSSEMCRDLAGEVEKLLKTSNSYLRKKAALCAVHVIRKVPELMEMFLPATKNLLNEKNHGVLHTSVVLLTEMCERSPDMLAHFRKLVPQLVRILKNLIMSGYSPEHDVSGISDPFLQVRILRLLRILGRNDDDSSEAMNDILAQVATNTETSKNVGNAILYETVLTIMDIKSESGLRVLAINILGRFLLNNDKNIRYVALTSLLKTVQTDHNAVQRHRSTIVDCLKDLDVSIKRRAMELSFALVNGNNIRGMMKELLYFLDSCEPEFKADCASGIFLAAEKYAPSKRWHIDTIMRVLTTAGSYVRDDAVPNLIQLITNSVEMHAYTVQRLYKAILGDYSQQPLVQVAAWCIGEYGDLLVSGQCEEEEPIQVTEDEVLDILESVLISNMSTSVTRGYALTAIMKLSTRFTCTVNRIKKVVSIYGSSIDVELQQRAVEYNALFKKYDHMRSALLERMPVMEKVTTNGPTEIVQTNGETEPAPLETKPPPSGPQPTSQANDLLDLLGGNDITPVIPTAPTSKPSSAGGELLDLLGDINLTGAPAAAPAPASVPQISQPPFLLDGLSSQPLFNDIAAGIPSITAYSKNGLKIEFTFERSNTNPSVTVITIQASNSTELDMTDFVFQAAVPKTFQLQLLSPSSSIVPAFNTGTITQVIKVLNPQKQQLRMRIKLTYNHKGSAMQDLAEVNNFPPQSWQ
UniProt Q9UBF8: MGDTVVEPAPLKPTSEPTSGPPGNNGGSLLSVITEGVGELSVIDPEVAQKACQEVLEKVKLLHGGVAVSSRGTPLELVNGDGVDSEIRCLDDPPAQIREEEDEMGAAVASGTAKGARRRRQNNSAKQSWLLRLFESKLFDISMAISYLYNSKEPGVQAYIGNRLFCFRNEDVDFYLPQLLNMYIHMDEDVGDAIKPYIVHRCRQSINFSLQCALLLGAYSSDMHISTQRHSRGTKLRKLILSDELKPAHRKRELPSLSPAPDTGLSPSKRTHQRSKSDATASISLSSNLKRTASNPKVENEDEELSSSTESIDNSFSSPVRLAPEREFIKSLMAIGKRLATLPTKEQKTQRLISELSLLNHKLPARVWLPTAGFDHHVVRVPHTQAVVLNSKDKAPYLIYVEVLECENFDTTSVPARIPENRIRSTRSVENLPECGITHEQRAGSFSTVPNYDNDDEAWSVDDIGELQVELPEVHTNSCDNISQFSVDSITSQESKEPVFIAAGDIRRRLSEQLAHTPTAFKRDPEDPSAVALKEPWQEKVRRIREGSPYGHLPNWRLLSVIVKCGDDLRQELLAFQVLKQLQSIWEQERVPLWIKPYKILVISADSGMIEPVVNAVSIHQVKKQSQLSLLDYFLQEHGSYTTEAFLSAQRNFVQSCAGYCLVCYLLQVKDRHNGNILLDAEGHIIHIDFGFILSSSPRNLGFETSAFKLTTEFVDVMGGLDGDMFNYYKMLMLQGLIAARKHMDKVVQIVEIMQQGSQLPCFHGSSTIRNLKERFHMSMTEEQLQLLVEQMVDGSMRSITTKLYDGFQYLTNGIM

Assays:
[1] = biological target: KIT mutant of GIST-T1 cells (KIT^Ex11, imatinib-sensitive) (human (endogenous in GIST-T1)) (UniProt P10721); assay: co-IP
[2] = biological target: T1, protein kinase D2 (PKD2) (human (endogenous in GIST-T1 and leukemia cell lines)) (UniProt Q9BZL6); assay: co-IP
T1 sequence: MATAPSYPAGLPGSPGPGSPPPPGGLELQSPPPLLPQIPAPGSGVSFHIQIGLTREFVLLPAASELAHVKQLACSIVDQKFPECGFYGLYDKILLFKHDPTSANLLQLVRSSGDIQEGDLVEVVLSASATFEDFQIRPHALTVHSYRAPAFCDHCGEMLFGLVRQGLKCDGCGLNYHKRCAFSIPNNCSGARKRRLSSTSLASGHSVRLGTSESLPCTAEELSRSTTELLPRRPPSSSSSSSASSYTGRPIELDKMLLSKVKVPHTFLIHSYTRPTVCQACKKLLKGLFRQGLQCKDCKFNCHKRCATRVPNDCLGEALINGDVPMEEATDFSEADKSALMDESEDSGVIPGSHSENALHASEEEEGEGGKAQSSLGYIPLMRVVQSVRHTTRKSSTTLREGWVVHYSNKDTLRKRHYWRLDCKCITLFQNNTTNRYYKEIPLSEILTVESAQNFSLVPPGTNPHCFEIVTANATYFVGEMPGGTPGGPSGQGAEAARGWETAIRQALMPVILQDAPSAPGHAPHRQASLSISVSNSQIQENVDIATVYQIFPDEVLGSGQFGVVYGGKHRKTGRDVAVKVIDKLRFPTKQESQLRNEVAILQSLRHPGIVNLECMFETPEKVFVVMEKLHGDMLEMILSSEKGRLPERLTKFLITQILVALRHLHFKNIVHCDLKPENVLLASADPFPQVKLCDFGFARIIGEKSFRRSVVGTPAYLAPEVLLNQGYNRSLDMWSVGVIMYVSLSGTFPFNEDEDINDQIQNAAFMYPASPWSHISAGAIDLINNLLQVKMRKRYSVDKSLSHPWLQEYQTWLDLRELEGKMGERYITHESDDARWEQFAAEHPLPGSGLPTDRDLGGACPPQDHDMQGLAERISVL

[3] = biological target: T1, protein kinase D2 (PKD2) (human (endogenous in GIST-T1 and leukemia cell lines)); assay: condition: only cells treated with 200 nM imatinib for 8 hours
[4] = biological target: KIT mutant of GIST-T1 cells (KIT^Ex11, imatinib-sensitive) (human (endogenous in GIST-T1)) (UniProt P10721); assay: proximity ligation
[5] = biological target: KIT mutant of GIST-T1 cells (KIT^Ex11, imatinib-sensitive) (human (endogenous in GIST-T1)) (UniProt P10721); assay: condition: only cells treated with 200 nM imatinib for 8 hours

γ-adaptin (AP1 component) (from UniProt O43747 1-822)
binding [1]: binds

KIT mutant of GIST-T1 cells (KIT^Ex11, imatinib-sensitive) (from UniProt P10721) (receptor)
binding [2]: binds
binding [3]: no binding

phosphatidylinositol 4-kinase IIIβ (PI4KIIIβ) (from UniProt Q9UBF8 1-816) (enzyme)
binding [1]: binds

B1: protein kinase D2 (PKD2) (enzyme, UniProt Q9BZL6 1-878)
chain: MATAPSYPAGLPGSPGPGSPPPPGGLELQSPPPLLPQIPAPGSGVSFHIQIGLTREFVLLPAASELAHVKQLACSIVDQKFPECGFYGLYDKILLFKHDPTSANLLQLVRSSGDIQEGDLVEVVLSASATFEDFQIRPHALTVHSYRAPAFCDHCGEMLFGLVRQGLKCDGCGLNYHKRCAFSIPNNCSGARKRRLSSTSLASGHSVRLGTSESLPCTAEELSRSTTELLPRRPPSSSSSSSASSYTGRPIELDKMLLSKVKVPHTFLIHSYTRPTVCQACKKLLKGLFRQGLQCKDCKFNCHKRCATRVPNDCLGEALINGDVPMEEATDFSEADKSALMDESEDSGVIPGSHSENALHASEEEEGEGGKAQSSLGYIPLMRVVQSVRHTTRKSSTTLREGWVVHYSNKDTLRKRHYWRLDCKCITLFQNNTTNRYYKEIPLSEILTVESAQNFSLVPPGTNPHCFEIVTANATYFVGEMPGGTPGGPSGQGAEAARGWETAIRQALMPVILQDAPSAPGHAPHRQASLSISVSNSQIQENVDIATVYQIFPDEVLGSGQFGVVYGGKHRKTGRDVAVKVIDKLRFPTKQESQLRNEVAILQSLRHPGIVNLECMFETPEKVFVVMEKLHGDMLEMILSSEKGRLPERLTKFLITQILVALRHLHFKNIVHCDLKPENVLLASADPFPQVKLCDFGFARIIGEKSFRRSVVGTPAYLAPEVLLNQGYNRSLDMWSVGVIMYVSLSGTFPFNEDEDINDQIQNAAFMYPASPWSHISAGAIDLINNLLQVKMRKRYSVDKSLSHPWLQEYQTWLDLRELEGKMGERYITHESDDARWEQFAAEHPLPGSGLPTDRDLGGACPPQDHDMQGLAERISVL
binding [1]: binds
binding [4]: binds
binding [5]: no binding

B2: phospho-PLCγ2^Y759 (phospholipase Cγ2 phosphorylated at Y759) (enzyme, UniProt P16885 1-1265)
chain: MSTTVNVDSLAEYEKSQIKRALELGTVMTVFSFRKSTPERRTVQVIMETRQVAWSKTADKIEGFLDIMEIKEIRPGKNSKDFERAKAVRQKEDCCFTILYGTQFVLSTLSLAADSKEDAVNWLSGLKILHQEAMNASTPTIIESWLRKQIYSVDQTRRNSISLRELKTILPLINFKVSSAKFLKDKFVEIGAHKDELSFEQFHLFYKKLMFEQQKSILDEFKKDSSVFILGNTDRPDASAVYLHDFQRFLIHEQQEHWAQDLNKVRERMTKFIDDTMRETAEPFLFVDEFLTYLFSRENSIWDEKYDAVDMQDMNNPLSHYWISSSHNTYLTGDQLRSESSPEAYIRCLRMGCRCIELDCWDGPDGKPVIYHGWTRTTKIKFDDVVQAIKDHAFVTSSFPVILSIEEHCSVEQQRHMAKAFKEVFGDLLLTKPTEASADQLPSPSQLREKIIIKHKKLGPRGDVDVNMEDKKDEHKQQGELYMWDSIDQKWTRHYCAIADAKLSFSDDIEQTMEEEVPQDIPPTELHFGEKWFHKKVEKRTSAEKLLQEYCMETGGKDGTFLVRESETFPNDYTLSFWRSGRVQHCRIRSTMEGGTLKYYLTDNLTFSSIYALIQHYRETHLRCAEFELRLTDPVPNPNPHESKPWYYDSLSRGEAEDMLMRIPRDGAFLIRKREGSDSYAITFRARGKVKHCRINRDGRHFVLGTSAYFESLVELVSYYEKHSLYRKMRLRYPVTPELLERYNMERDINSLYDVSRMYVDPSEINPSMPQRTVKALYDYKAKRSDELSFCRGALIHNVSKEPGGWWKGDYGTRIQQYFPSNYVEDISTADFEELEKQIIEDNPLGSLCRGILDLNTYNVVKAPQGKNQKSFVFILEPKQQGDPPVEFATDRVEELFEWFQSIREITWKIDTKENNMKYWEKNQSIAIELSDLVVYCKPTSKTKDNLENPDFREIRSFVETKADSIIRQKPVDLLKYNQKGLTRVYPKGQRVDSSNYDPFRLWLCGSQMVALNFQTADKYMQMNHALFSLNGRTGYVLQPESMRTEKYDPMPPESQRKILMTLTVKVLGARHLPKLGRSIACPFVEVEICGAEYDNNKFKTTVVNDNGLSPIWAPTQEKVTFEIYDPNLAFLRFVVYEEDMFSDPNFLAHATYPIKAVKSGFRSVPLKNGYSEDIELASLLVFCEMRPVLESEEELYSSCRQLRRRQEELNNQLFLYDTHQNLRNANRDALVKEFSVNENQLQLYQEKCNKRLREKRVSNSKFYS
modifications: phosphotyrosine at 759
binding [4]: binds

B3: GGA1 (Golgi-associated, γ-adaptin ear-containing, ARF-binding protein 1) (protein, UniProt Q9UJY5 1-639)
chain: MEPAMEPETLEARINRATNPLNKELDWASINGFCEQLNEDFEGPPLATRLLAHKIQSPQEWEAIQALTVLETCMKSCGKRFHDEVGKFRFLNELIKVVSPKYLGSRTSEKVKNKILELLYSWTVGLPEEVKIAEAYQMLKKQGIVKSDPKLPDDTTFPLPPPRPKNVIFEDEEKSKMLARLLKSSHPEDLRAANKLIKEMVQEDQKRMEKISKRVNAIEEVNNNVKLLTEMVMSHSQGGAAAGSSEDLMKELYQRCERMRPTLFRLASDTEDNDEALAEILQANDNLTQVINLYKQLVRGEEVNGDATAGSIPGSTSALLDLSGLDLPPAGTTYPAMPTRPGEQASPEQPSASVSLLDDELMSLGLSDPTPPSGPSLDGTGWNSFQSSDATEPPAPALAQAPSMESRPPAQTSLPASSGLDDLDLLGKTLLQQSLPPESQQVRWEKQQPTPRLTLRDLQNKSSSCSSPSSSATSLLHTVSPEPPRPPQQPVPTELSLASITVPLESIKPSNILPVTVYDQHGFRILFHFARDPLPGRSDVLVVVVSMLSTAPQPIRNIVFQSAVPKVMKVKLQPPSGTELPAFNPIVHPSAITQVLLLANPQKEKVRLRYKLTFTMGDQTYNEMGDVDQFPPPETWGSL
binding [1]: binds
